According to paper PMC11998267:
No constants are given. Whether binding was seen depends on the method and setting. Binding seen in cells or lysates may run through a third protein. Some binding calls cover weakened binding; strength is not graded here.

Amino acid sequences for entries named in this document (tags omitted).
UniProt P67809: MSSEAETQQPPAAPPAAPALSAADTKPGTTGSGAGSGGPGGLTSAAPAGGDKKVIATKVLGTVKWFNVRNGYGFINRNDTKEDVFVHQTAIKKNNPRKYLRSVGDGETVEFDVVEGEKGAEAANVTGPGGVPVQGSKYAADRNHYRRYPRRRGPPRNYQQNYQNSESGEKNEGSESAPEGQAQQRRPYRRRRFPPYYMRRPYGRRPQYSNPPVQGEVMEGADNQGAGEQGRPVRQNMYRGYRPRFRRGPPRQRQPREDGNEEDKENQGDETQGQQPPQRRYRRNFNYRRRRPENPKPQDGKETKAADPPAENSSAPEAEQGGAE

Molecular target: T1, interleukin enhancer-binding factor 3 (human (endogenous in CRC cells)) (UniProt Q12906)
T1 sequence: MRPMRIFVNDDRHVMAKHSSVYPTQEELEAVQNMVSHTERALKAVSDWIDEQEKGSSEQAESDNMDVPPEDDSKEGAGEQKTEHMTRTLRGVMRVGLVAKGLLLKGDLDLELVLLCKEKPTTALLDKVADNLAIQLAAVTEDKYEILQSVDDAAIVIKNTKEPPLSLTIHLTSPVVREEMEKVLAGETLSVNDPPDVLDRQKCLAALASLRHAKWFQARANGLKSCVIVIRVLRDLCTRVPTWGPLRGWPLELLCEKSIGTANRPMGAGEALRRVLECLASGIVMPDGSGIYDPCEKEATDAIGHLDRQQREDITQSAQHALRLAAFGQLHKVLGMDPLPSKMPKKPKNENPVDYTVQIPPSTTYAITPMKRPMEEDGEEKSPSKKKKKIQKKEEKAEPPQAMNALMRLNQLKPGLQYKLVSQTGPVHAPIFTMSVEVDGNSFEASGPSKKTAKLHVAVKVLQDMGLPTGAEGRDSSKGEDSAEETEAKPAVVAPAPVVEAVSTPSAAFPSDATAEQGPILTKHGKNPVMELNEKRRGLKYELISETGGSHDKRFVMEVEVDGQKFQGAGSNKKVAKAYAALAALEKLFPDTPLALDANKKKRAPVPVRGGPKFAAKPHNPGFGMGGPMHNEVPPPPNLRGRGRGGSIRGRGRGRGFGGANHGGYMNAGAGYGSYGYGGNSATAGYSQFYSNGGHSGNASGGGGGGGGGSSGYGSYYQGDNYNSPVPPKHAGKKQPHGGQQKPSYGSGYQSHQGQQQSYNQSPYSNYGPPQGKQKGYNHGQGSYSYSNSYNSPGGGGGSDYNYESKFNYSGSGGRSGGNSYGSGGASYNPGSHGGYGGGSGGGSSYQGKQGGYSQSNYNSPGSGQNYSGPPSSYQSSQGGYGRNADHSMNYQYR
Assay: co-IP; Co-IP in CRC cells, Western blot; YBX1 co-precipitated with ILF3; also done after LINC02167 knockdown (less YBX1 co-precipitated) or overexpression (more)

binding: binds
Substance: Y-box binding protein 1 (from UniProt P67809 1-324)
